# Measured values from the supplement of paper PMC8728848.
# The other results are listed elsewhere or left out.
# How the values were obtained:
# Experiment in all cases: glycan array binding signal (z-score within array); higher = stronger binding
# Details in all cases: glycan notation: IUPAC condensed, linker removed
# [1] = target: Gal(b1-4)GlcNAc(b1-3)Gal(b1-4)GlcNAc(b1-3)Gal(b1-4)GlcNAc(b1-3)Gal(b1-4)GlcNAc(b1-2)Man(a1-3)[Gal(b1-4)GlcNAc(b1-3)Gal(b1-4)GlcNAc(b1-3)Gal(b1-4)GlcNAc(b1-3)Gal(b1-4)GlcNAc(b1-2)Man(a1-6)]Man(b1-4)GlcNAc(b1-4)[Fuc(a1-6)]GlcNAc
# Procedure, shortened: (§1)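 The binding signal is a Z-score computed within each array and averaged over linkers. Arrays of the same protein sequence at different concentrations or buffers were also averaged together. Data originate from 3228 arrays in the Consortium for Functional Glycomics database, kept only where the protein sequence was available.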
# [2] = target: Gal(b1-4)GlcNAc(b1-3)Gal(b1-4)GlcNAc(b1-3)Gal(b1-4)GlcNAc(b1-3)Gal(b1-4)GlcNAc(b1-2)[Gal(b1-4)GlcNAc(b1-3)Gal(b1-4)GlcNAc(b1-3)Gal(b1-4)GlcNAc(b1-3)Gal(b1-4)GlcNAc(b1-6)]Man(a1-6)[Gal(b1-4)GlcNAc(b1-3)Gal(b1-4)GlcNAc(b1-3)Gal(b1-4)GlcNAc(b1-3)Gal(b1-4)GlcNAc(b1-2)Man(a1-3)]Man(b1-4)GlcNAc(b1-4)[Fuc(a1-6)]GlcNAc
# Procedure, shortened: as §1
# [3] = target: Gal(b1-4)GlcNAc(b1-3)Gal(b1-4)GlcNAc(b1-3)Gal(b1-4)GlcNAc(b1-3)Gal(b1-4)GlcNAc(b1-3)Gal(b1-4)GlcNAc(b1-2)Man(a1-3)[Gal(b1-4)GlcNAc(b1-3)Gal(b1-4)GlcNAc(b1-3)Gal(b1-4)GlcNAc(b1-3)Gal(b1-4)GlcNAc(b1-3)Gal(b1-4)GlcNAc(b1-2)Man(a1-6)]Man(b1-4)GlcNAc(b1-4)GlcNAc
# Procedure, shortened: as §1
# [4] = target: Gal(b1-4)GlcNAc(b1-3)Gal(b1-4)GlcNAc(b1-3)Gal(b1-4)GlcNAc(b1-3)Gal(b1-4)GlcNAc(b1-3)Gal(b1-4)GlcNAc(b1-2)Man(a1-3)[Gal(b1-4)GlcNAc(b1-3)Gal(b1-4)GlcNAc(b1-3)Gal(b1-4)GlcNAc(b1-3)Gal(b1-4)GlcNAc(b1-3)Gal(b1-4)GlcNAc(b1-2)Man(a1-6)]Man(b1-4)GlcNAc(b1-4)[Fuc(a1-6)]GlcNAc
# Procedure, shortened: as §1
# [5] = target: Gal(b1-4)GlcNAc(b1-3)Gal(b1-4)GlcNAc(b1-3)Gal(b1-4)GlcNAc(b1-3)Gal(b1-4)GlcNAc(b1-3)Gal(b1-4)GlcNAc(b1-2)[Gal(b1-4)GlcNAc(b1-3)Gal(b1-4)GlcNAc(b1-3)Gal(b1-4)GlcNAc(b1-3)Gal(b1-4)GlcNAc(b1-3)Gal(b1-4)GlcNAc(b1-6)]Man(a1-6)[Gal(b1-4)GlcNAc(b1-3)Gal(b1-4)GlcNAc(b1-3)Gal(b1-4)GlcNAc(b1-3)Gal(b1-4)GlcNAc(b1-3)Gal(b1-4)GlcNAc(b1-2)Man(a1-3)]Man(b1-4)GlcNAc(b1-4)[Fuc(a1-6)]GlcNAc
# Procedure, shortened: as §1
# [6] = target: Gal(b1-4)GlcNAc(b1-3)Gal(b1-4)GlcNAc(b1-3)Gal(b1-4)GlcNAc(b1-3)Gal(b1-4)GlcNAc(b1-3)Gal(b1-4)GlcNAc(b1-3)Gal(b1-4)GlcNAc(b1-2)Man(a1-3)[Gal(b1-4)GlcNAc(b1-3)Gal(b1-4)GlcNAc(b1-3)Gal(b1-4)GlcNAc(b1-3)Gal(b1-4)GlcNAc(b1-3)Gal(b1-4)GlcNAc(b1-3)Gal(b1-4)GlcNAc(b1-2)Man(a1-6)]Man(b1-4)GlcNAc(b1-4)GlcNAc
# Procedure, shortened: as §1
# [7] = target: Gal(b1-4)GlcNAc(b1-3)Gal(b1-4)GlcNAc(b1-3)GalNAc
# Procedure, shortened: as §1
# [8] = target: Gal(b1-4)GlcNAc(b1-3)Gal(b1-4)GlcNAc(b1-3)[Gal(b1-4)GlcNAc(b1-3)Gal(b1-4)GlcNAc(b1-6)]GalNAc
# Procedure, shortened: as §1
# [9] = target: Gal(b1-4)GlcNAc(b1-3)Gal(b1-4)GlcNAc(b1-6)[Gal(b1-3)]GalNAc
# Procedure, shortened: as §1
# [10] = target: Gal(b1-4)GlcNAc(b1-3)Gal(b1-4)[Fuc(a1-3)]GlcNAc(b1-3)Gal(b1-4)[Fuc(a1-3)]GlcNAc
# Procedure, shortened: as §1
# [11] = target: Gal(b1-4)GlcNAc(b1-3)GalNAc
# Procedure, shortened: as §1
# [12] = target: Gal(b1-4)GlcNAc(b1-3)[Fuc(a1-3)GlcNAc(b1-6)]Gal(b1-4)Glc
# Procedure, shortened: as §1
# [13] = target: Gal(b1-4)GlcNAc(b1-3)[Gal(b1-4)GlcNAc(b1-6)]Gal(b1-4)GlcNAc
# Procedure, shortened: as §1
# [14] = target: Gal(b1-4)GlcNAc(b1-3)[GlcNAc(b1-6)]Gal(b1-4)GlcNAc
# Procedure, shortened: as §1
# [15] = target: Gal(b1-4)GlcNAc(b1-6)Gal(b1-4)GlcNAc
# Procedure, shortened: as §1
# [16] = target: Gal(b1-4)GlcNAc(b1-6)GalNAc
# Procedure, shortened: as §1
# [17] = target: Gal(b1-4)GlcNAc(b1-6)[Gal(b1-3)]GalNAc
# Procedure, shortened: as §1
# [18] = target: Gal(b1-4)GlcNAc(b1-6)[Gal(b1-4)GlcNAc(b1-3)]GalNAc
# Procedure, shortened: as §1
# [19] = target: Gal(b1-4)GlcNAc6P
# Procedure, shortened: as §1
# [20] = target: Gal(b1-6)Gal
# Procedure, shortened: as §1
# [21] = target: Gal3S(b1-3)GalNAc
# Procedure, shortened: as §1
# [22] = target: Gal3S(b1-3)GlcNAc
# Procedure, shortened: as §1
# [23] = target: Gal3S(b1-3)[Fuc(a1-4)]GlcNAc
# Procedure, shortened: as §1
binder,measurement,setting,value
Lb MiSSP8 (Laccaria bicolor) (protein) MYFHTLFACATLMLITTAHASPTVINSLDSRKADLNGDVEARHAADWRRDSDWRRDSDWRRDSDWRRDSD,glycan array binding signal (z-score),[1],0.996
same,glycan array binding signal (z-score),[2],1.09
same,glycan array binding signal (z-score),[3],1.02
same,glycan array binding signal (z-score),[4],1.62
same,glycan array binding signal (z-score),[5],0.809
same,glycan array binding signal (z-score),[6],-0.129
same,glycan array binding signal (z-score),[7],0.43
same,glycan array binding signal (z-score),[8],1.16
same,glycan array binding signal (z-score),[9],0.423
same,glycan array binding signal (z-score),[10],-0.695
same,glycan array binding signal (z-score),[11],-0.833
same,glycan array binding signal (z-score),[12],0.236
same,glycan array binding signal (z-score),[13],-0.129
same,glycan array binding signal (z-score),[14],1.9
same,glycan array binding signal (z-score),[15],0.085
same,glycan array binding signal (z-score),[16],-0.433
same,glycan array binding signal (z-score),[17],1.32
same,glycan array binding signal (z-score),[18],-0.799
same,glycan array binding signal (z-score),[19],-0.64
same,glycan array binding signal (z-score),[20],-0.212
same,glycan array binding signal (z-score),[21],0.092
same,glycan array binding signal (z-score),[22],0.154
same,glycan array binding signal (z-score),[23],0.409

# Part of the list above, set out differently:
binder	measurement	setting	value
Lb MiSSP8 (Laccaria bicolor) (protein) MYFHTLFACATLMLITTAHASPTVINSLDSRKADLNGDVEARHAADWRRDSDWRRDSDWRRDSDWRRDSD	glycan array binding signal (z-score)	[7]	0.43
same	glycan array binding signal (z-score)	[8]	1.16
